Reference: PMC12370185
The list shows a part of the results. At the low end of the ranking the order means little.

tested on: OCT4 + histone octamer; experiment: Pioneer-seq (competitive nucleosome EMSA with sequencing); conditions: 10 mM Tris-Cl pH 7.5, 50 mM NaCl, 1 mM DTT, 0.25 mg/ml BSA, 2 mM MgCl2, 0.025% Nonidet P-40, 5% glycerol; 28 nM nucleosome library; 10 min on ice then 30 min …; high values mean tight binding; double strand, one strand shown

| Sequence | binding signal (log2 relative supershift) |
| --- | --- |
| GATGGACCCTATACGCGGCCCTGGAGAATCTCTGACCCTCCCCACAAGTGTTTACATCAGATGCTTTTGTAAACATGAAGGAACCTTCCCAGGGCCTTGTCTGGGCTTGCCCACAATGTACTGGAGGCCCGCCTGTGCACTGGGAGAATGGGGTGGAGCCACTGGGATTTGCGCCTTATGCAGAGGGGAGGAGCCTGGCCTCTTCAGCTCTGCCAGTCGGATAGTGTTCC | -0.31 |
| GATGGACCCTATACGCGGCTCTTTAAAGAAAAAAAAAATGGCTATTGTTTTCCTGAGACCTCCCACATGTTGGGAAATAACTTACAGTGAGGCAGTTTCCTTGTGGTGTAGTCTGAACTCTTGAATAGCTGGCTGTGTATGGATTGCGGCAGTCACCATAACAATGGGCTCATCTTAAAACGTTCATTTAGATTCATTATTGGAACTGTGTGCCAGTCGGATAGTGTTCC | -0.0676 |
| GATGGACCCTATACGCGGCCCTACCTGTTTCTTGCAGTCGTGTATTCTGGGACTTTCCTCATGGTGGGACCTTTCACACAACCCTCCTCTTCAAGCTGGGCAAGCCTGTTCTTGTCTCTCTTGTGCTTCAGGAGGAAGTACTGGAGAAGATGTAAGTTTTTAAGCCTTCATTTGGGGGGATGTGGAATGAAGGCAAAGGAGAGATGGGCATGCCAGTCGGATAGTGTTCC | -0.349 |
| GATGGACCCTATACGCGGCATGGCCTGAGACTCCTGGCCTCTTTCCAACCTAGGGACCACCTGCCACCCCACCCAAACCTCAAGCATGCTGTTGTGTGGCTTCTGCATCCACCCCACCTCAGCTGTGTCTGCGTCACTGGGCAGATGTAGGGATCCCCGTGTACCATGCGCACATGGCCTTGTTTGTGATTAGTGGGGCCCCGAGGGAAATGCCAGTCGGATAGTGTTCC | -0.982 |
| GATGGACCCTATACGCGGCTGTGATGTCAGTTTGTATGTACGAGAACAGTGGGTGTGGGCAGTAAAGGGGTGGGATGAAATGAGCATCTGTGTGTGTGTTTGCGCATGTGCATCATGTGTACACACATATGCACACACATGCCTAGTATCTGCTCTCTCCTTATTCTAGATTACCCCTACCCCCTTTTATTAAAGACTCAAGAGGATCTTTGCCAGTCGGATAGTGTTCC | -0.305 |
| GATGGACCCTATACGCGGCACTCCAGAGGCAGAGATGGGACGACTGCTTGAGCCCAAGAGTTTAGTTAGAAGCTGCAGAGAGCTCTGGTCATGGCACTGCACTCCAGCCTGGGCAACAGAGCAAGACCTCATCTCCTGCCTGGGCGTGCTGGTTCATGCCTGTAATCCCAGCACTTTGGGAGACCGAAGCACATGGATCACTTGAGGTCATGCCAGTCGGATAGTGTTCC | -0.524 |
| GATGGACCCTATACGCGGCTCACACACCCATCCTAACATTGTCAAATGTGTCACACACCCACCTTACCATTGTCATCTATCCCACCATTGTCAAGTGTGTCATGCACCCATCCTACCATTGTCACCCATCATACCATTGTCAAGCAACTGTTTAACAATGAAAAGATTTATAAGATGGAAATAGATTATCAGATGGATTTAAGGCCTTGATGCCAGTCGGATAGTGTTCC | -0.391 |
| GATGGACCCTATACGCGGCGCTGCCACATCCATTCATTTATGTGATCCAAAGAGGTGGAGGCAGAGGCAGTCACAAGCCTGGACTTGAGTCAGGCAGGCCTGGGCTGGAACTTGGATTAGCAGACCACAGCCAAGCACTTCACTCATCTCTAAATCTGGAATTGTAGAAGTCTTTCTCCCATTTTATATGTGCTTGCAGGATTCCTTAAGTGCCAGTCGGATAGTGTTCC | -0.139 |
| GATGGACCCTATACGCGGCTTAGATAAACAAAATCTGGAGTATCTGAAGGGTGTGTAAGGCAGAAGTCATGTGAGGTCTGCACACAGCACACTGCTACCTACAGTGTTGGGGGAGTGGCATTGAGCACCATTATCATGCAAGGTGGAGGTGGGTGCCAATAATCACCACTATCATGCAAGGCTAGGGTGGGTGAGGGCAGAAGCCACTCTTGCCAGTCGGATAGTGTTCC | -0.372 |
| GATGGACCCTATACGCGGCTAGCCCAACTATTTAACTAAAGGAACTTTGTAATATCTGGACTCAGAAACTGAGATAAATGCCATAACCAATCATCCAACCGGAGACTGAGGTACATGTAATCAGGTTCAAAAGTGACTCTAAAGGTACTTGCCTGGCAGCATGACAAAGTGGCATATTATTACACTCCTTAAACACTTTGTGAGAAGCAGTGCCAGTCGGATAGTGTTCC | -0.256 |
| GATGGACCCTATACGCGGCTACTCACATTTGACTAATTGCCCACCCACTCCAGCATTAGAGATGTTATTAGTATGCAGATTTGTGGTAATCCCTGGATGGGTGAGGCTTCCTAGATCTCCCTTTCTCACAGGCTCCCCCTCCTGCTATCTGCCTACTCTAACAGAAATGTTTTCTATCTTAACTGTGTCAATGTCAGTATCTTGATTGTGTGCCAGTCGGATAGTGTTCC | -0.362 |

tested on: SOX2 + histone octamer; experiment: as above; conditions: 10 mM Tris-Cl pH 7.5, 50 mM NaCl, 1 mM DTT, 0.25 mg/ml BSA, 2 mM MgCl2, 0.025% Nonidet P-40, 5% glycerol; 28 nM nucleosome library; 10 min on ice then 30 min …; high values mean tight binding; double strand, one strand shown

| Sequence | binding signal (log2 relative supershift) |
| --- | --- |
| GATGGACCCTATACGCGGCTGTGAATTGTGGAGGAAGGGCCCAGGAGGGCCACATGCCCTGCCAGGGAAGCCATAGAGAGCCCTGCCCCGGGAGGTCAGTGCCTCCTTCAATGCCTGCGATCCCTCACCCTGCCCTGCTTCCCCCACCATCCGCCCCGCCTGGGCAGCCTGGGCCACTGCCCGCCAGCCACCCCCGCCTTCGGACTGTGCTGCCAGTCGGATAGTGTTCC | -0.585 |
| GATGGACCCTATACGCGGCCCTCCCTGGGCATACCTGGTGGCATCAGGCCTGATCCTCTACAATGTCTGTCCCTGCCCTTGCCTGCTACTTCCAGGCCTACCTCCAGCCCAGACCTGCCCAGGCCTGCCCAGGCCCTGCTCTACCCTGATGCTCTGTGGCTCTGTTCCTGGGACTCTTCCTGGGAGACAGAAGGGAGATGAGAGCTCAAGTGCCAGTCGGATAGTGTTCC | -0.527 |
| GATGGACCCTATACGCGGCCTTCTGGCATGGACTTTGCCCCAGAGGGACACACCTAGCTTCTTGCGGGAGTGGGCAAGGAGGAGCACAGTTGGAACTACAGGGAGGGTGGTGGGGCTTGGCCCCCATGCAGTAGGCACATGGCAGGTGTTCCCTAAGGAGGAAACCTGGCCCTCCTCAGTCTTTCCTGTGAGACTGAGTAGGCAGAGTGGTGCCAGTCGGATAGTGTTCC | -0.602 |
| GATGGACCCTATACGCGGCGGGAATACGTGCATGAGTGGGGTGTGTGTGCATGTGTGTGAATGTGTGTGTGCATGTGCAAAGCAACTCTGTGTATGAGGCAAACCTGAGTGTGTGCGGTGCGTGTGAATGCCTGCATGTGCGCGTGCGTGTGTGAAGAGTCTGCGTGGGGGAACACGTGTGTAAAGGCATGGATGTGCACGTGTGTGTGCTGCCAGTCGGATAGTGTTCC | -0.118 |
| GATGGACCCTATACGCGGCCATTCCCCAAGCCCTCCCAGTTATCCATGATCAGGAGGCTGTCTCTTTGCCTGCCTTCTCCAACCCTGCACCCAGCCTCTTTGCCTCTGCAGGACTTCCCCAGAAAGTTGAATCTTCTTCCCTTTATAGAGCGGAGCAGTTCAGCTCAGACTTGTAGGCACACCTGTGCAGCACAGACCAACGTCTCTCCTTGCCAGTCGGATAGTGTTCC | -0.273 |
| GATGGACCCTATACGCGGCTGTGTGACTCAGCAGAGACAGCCATAATCTCCCTGGGACTATCACTCCATTGGACTGGGAACCACACCACCATCCCCCACAGCAGCTGCAGCAAGCCCCGCCCAAGATGAGGCTGAGCTCAGACAGGCCTATCCCTGCCCCAACCTGCTGGTCTTTCTCTATCCACCCTGGTAGCCAAAGGAAAAGGTCATTGCCAGTCGGATAGTGTTCC | -0.0151 |
| GATGGACCCTATACGCGGCATGGCCTGAGACTCCTGGCCTCTTTCCAACCTAGGGACCACCTGCCACCCCACCCAAACCTCAAGCATGCTGTTGTGTGGCTTCTGCATCCACCCCACCTCAGCTGTGTCTGCGTCACTGGGCAGATGTAGGGATCCCCGTGTACCATGCGCACATGGCCTTGTTTGTGATTAGTGGGGCCCCGAGGGAAATGCCAGTCGGATAGTGTTCC | -0.426 |
| GATGGACCCTATACGCGGCACTCCAGAGGCAGAGATGGGACGACTGCTTGAGCCCAAGAGTTTAGTTAGAAGCTGCAGAGAGCTCTGGTCATGGCACTGCACTCCAGCCTGGGCAACAGAGCAAGACCTCATCTCCTGCCTGGGCGTGCTGGTTCATGCCTGTAATCCCAGCACTTTGGGAGACCGAAGCACATGGATCACTTGAGGTCATGCCAGTCGGATAGTGTTCC | -0.873 |
